Values from PubChem BioAssay AID1224828 (NIAID, 2016).
The whole screen tested about 17,000 reagents; shown is a part drawn at random. Of all reagents, 762 (4.5%) are marked active. 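Active calls include both raised and lowered p65 entry, mostly lowered; wells with fewer than 50 cells lack a z-score.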 Raw values are not corrected between plates. Entries without a mark were called inactive. Reagent sequences are not shown.

Purpose: 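Find genes required for NF-kappaB p65 moving into the nucleus after LPS in mouse macrophages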 (primary screen)
Cells: mouse RAW264.7 G9 macrophage reporter cells (GFP-p65, Tnf promoter-mCherry)
Reagent: siRNA pool against mouse genes, 100 nM
Duration: 2 days siRNA transfection, then 40 min LPS before fixation
Treatment: LPS (Salmonella minnesota R595) at 10 ng/ml
Measured: 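Microscopy ratio of nuclear to perinuclear-ring GFP-p65 signal, scaled to the plate median; gene score is the average of two replicate robust z-scores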
Reading the numbers: p65 translocation robust z-score: higher = more nuclear NF-kappaB p65 after LPS than the plate median; nuclear/cytoplasmic p65 ratio: higher = more nuclear NF-kappaB p65
Rule for the call: 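Called active when z exceeds 3.3 or falls under -1.56 (median of Tlr4 controls), giving activity score of at least 50; no calls for control wells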
Meaning of the calls: active = hit (p65 shift raised or lowered); inactive = no clear change

The first 9 records, ahead of the listing:
gene	p65 translocation robust z-score	nuclear/cytoplasmic p65 ratio, rep 1	nuclear/cytoplasmic p65 ratio, rep 2	low cell count flag
Ppme1	2.67	1.8	2.22	enough cells to score
F12	-0.35	1.29	1.44	enough cells to score
Or5ac20	0.6	1.68	1.52	enough cells to score
Cpeb1	-0.18	1.42	1.9	enough cells to score
Pth2r	-0.6	1.42	1.51	enough cells to score
A730013G03Rik	1.09	1.63	1.56	enough cells to score
Rnf220	-1.24	1.12	1.08	enough cells to score
Lyrm2	-2.15 (active)	1.14	1.15	enough cells to score
Uap1		1.46	1.14	fewer than 50 cells per well; well left out of scoring

The list itself, from the start:
gene	p65 translocation robust z-score	nuclear/cytoplasmic p65 ratio, rep 1	nuclear/cytoplasmic p65 ratio, rep 2	low cell count flag
Ppme1	2.67	1.8	2.22	enough cells to score
F12	-0.35	1.29	1.44	enough cells to score
Or5ac20	0.6	1.68	1.52	enough cells to score
Cpeb1	-0.18	1.42	1.9	enough cells to score
Pth2r	-0.6	1.42	1.51	enough cells to score
A730013G03Rik	1.09	1.63	1.56	enough cells to score
Rnf220	-1.24	1.12	1.08	enough cells to score
Lyrm2	-2.15 (active)	1.14	1.15	enough cells to score
Uap1		1.46	1.14	fewer than 50 cells per well; well left out of scoring
Cnnm4	1.03	1.73	1.4	enough cells to score
Gad1	-0.14	1.35	1.42	enough cells to score
Rps6ka6		1.67	1.29	fewer than 50 cells per well; well left out of scoring
Brip1	-0.13	1.67	1.52	enough cells to score
Pheta1		1.73	2.36	fewer than 50 cells per well; well left out of scoring
Sir2l1	2.27	1.74	1.97	enough cells to score
4930433N12Rik		1.23	1.25	fewer than 50 cells per well; well left out of scoring
Hspa14		1.48	1.58	fewer than 50 cells per well; well left out of scoring
Riox1		1.28	1.35	fewer than 50 cells per well; well left out of scoring
Meox1	1.05	1.13	1.48	enough cells to score
Ect2	-1.15	1.38	1.16	enough cells to score
Cby2	0.82	1.87	1.62	enough cells to score
Srpk3	2.29	2.13	1.61	enough cells to score
Ddc	0.2	1.45	1.46	enough cells to score
Ddx50	0.3	1.65	1.56	enough cells to score
Jtb	-1.18	1.39	1.26	enough cells to score
Rbpjl	-1.67 (active)	1.35	1.22	enough cells to score
Tex261	0.79	1.48	1.27	enough cells to score
Or4c116	2.15	2.08	1.81	enough cells to score
Ppp1r9a	1.31	1.6	1.65	enough cells to score
Tmem134	-1.62 (active)	1.15	1.14	enough cells to score
Dapk3	-0.29	1.92	1.35	enough cells to score
Slc39a3	-0.26	1.04	1.23	enough cells to score
Acly	-1	1.4	1.58	enough cells to score
Emsy	0.2	1.38	1.33	enough cells to score
S100g	0.04	1.72	1.66	enough cells to score
Or13p8		1.54	1.44	fewer than 50 cells per well; well left out of scoring
Nsmce3	0.17	1.83	1.6	enough cells to score
Smpd3	1.01	1.7	1.69	enough cells to score
Mapkapk5		1.44	1.45	fewer than 50 cells per well; well left out of scoring
Anapc10	-0.11	1.56	1.64	enough cells to score
Fbxo38	-0.87	1.43	1.38	enough cells to score
Mdga2	1.85	2.21	1.64	enough cells to score
Sry	-0.71	1.27	1.2	enough cells to score
Evi5	0.71	1.68	1.33	enough cells to score
Omt2b	1.67	2.1	1.8	enough cells to score
Ccdc28b			1.22	fewer than 50 cells per well; well left out of scoring
Ndufb2	-0.01	1.74	1.63	enough cells to score
Trmt10c	0.5	1.49	1.29	enough cells to score
Ang3	0.43	1.72	1.65	enough cells to score
Pxt1	-0.49	1.28	1.41	enough cells to score
Nod2	0.97	1.78	1.74	enough cells to score
Atp5mc3	0.2	1.58	1.59	enough cells to score
Acta1	0.12	1.65	1.62	enough cells to score
Eif2ak2	0.75	1.7	1.56	enough cells to score
Htr3b		1.42	1.67	fewer than 50 cells per well; well left out of scoring
Calu	-0.36	1.62	1.63	enough cells to score
Golga1	0.05	1.59	1.61	enough cells to score
Rasgrp4	-0.53	1.42	1.46	enough cells to score
Shld2	1.1	1.61	1.94	enough cells to score
Rnmt	-0.47	1.49	1.42	enough cells to score
Sox13	-0.79	1.3	1.15	enough cells to score
Gm10128		1.49	1.34	fewer than 50 cells per well; well left out of scoring
Tmem150a	0.11	1.58	1.88	enough cells to score
Stpg2	1.98	1.88	2.17	enough cells to score
Ptgds	-0.82	1.35	1.34	enough cells to score
1700129L13RIK	-3.27 (active)	1.46	0.995	enough cells to score
Slc2a10		1.37	1.21	fewer than 50 cells per well; well left out of scoring
Abr	-0.79	1.54	1.45	enough cells to score
Anapc7	0.51	1.68	1.71	enough cells to score
Tssk2	0.53	1.77	1.29	enough cells to score
Cxcl1	-1.01	1.34	1.46	enough cells to score
Ikzf1	-1.9 (active)	1.21	0.991	enough cells to score
Rnf222	-0.25	1.41	1.49	enough cells to score
Igf2	-1.03	1.27	1.27	enough cells to score
Haus7	0.69	1.55	1.63	enough cells to score
